Some results were stated once for a whole list of compounds, not compound by compound.
System: Small Brown Planthopper (Laodelphax striatellus)
Test: Insecticidal test on small brown planthopper (dipped rice seedlings, 3rd-instar larvae)
Type: in vivo
Conditions: rice seedlings dipped 30 seconds, 8 days after inoculation
Source text: • A: the mortality rate is 100%. • B: the mortality rate is 90 to 99%. • C: the mortality rate is 80 to 89%. • D: the mortality rate is 50 to 79%. • E: the mortality rate is 0 to 49%.
Insecticidal Test on Small Brown Planthopper (Laodelphax striatellus)
The compounds represented by the general formula (1) of the present invention or salts thereof were separately dispersed in water and diluted to 50 ppm or 500 ppm. Rice plant seedlings (variety: Nihonbare) were dipped in the agrochemical dispersions for 30 seconds. After air-dried, each seedling was put into a separate glass test tube and inoculated with ten 3rd-instar larvae of small brown planthopper, and then the glass test tubes were capped with cotton plugs. At 8 days after the inoculation, the numbers of surviving larvae and dead larvae were counted, the corrected mortality rate was calculated according to the formula shown below, and the insecticidal efficacy was evaluated according to the criteria of Test Example 1.

Row | Compound | insecticidal efficacy (corrected mortality rate) against small brown planthopper (500 ppm) | insecticidal efficacy (corrected mortality rate) against small brown planthopper (50 ppm)
1 | COC(=O)N1C(=O)C(C(=O)Nc2ccn(C)n2)=C(O)CN1c1ccc(C#N)nc1 [3-425] | A (the mortality rate is 100%) | –
2 | COCCNC(=O)C1=C(O)CN(c2ccc(C#N)nc2)N(C(=O)OC)C1=O [3-426] | A (the mortality rate is 100%) | A (the mortality rate is 100%)
3 | COC(=O)N1C(=O)C(C(=O)Nc2cnn(C)c2)=C(O)CN1c1ccc(C#N)cc1 [3-438] | A (the mortality rate is 100%) | A (the mortality rate is 100%)
4 | COc1ccc(NC(=O)C2=C(O)CN(c3ccc(C#N)cc3)NC2=O)cc1 [1-234] | A (the mortality rate is 100%) | –
5 | COC(=O)N1C(=O)C(C(=O)Nc2cc(C)n(C)n2)=C(O)CN1c1ccc(Cl)nc1 [3-645] | A (the mortality rate is 100%) | A (the mortality rate is 100%)
6 | COCCOC(=O)N1C(=O)C(C(=O)Nc2cnn(C)c2)=C(O)CN1c1ccc(C#N)cc1 [3-439] | A (the mortality rate is 100%) | A (the mortality rate is 100%)
7 | CCn1ccc(NC(=O)C2=C(O)CN(c3ccc(Cl)nc3)N(C(=O)OC)C2=O)n1 [3-644] | A (the mortality rate is 100%) | A (the mortality rate is 100%)
8 | COCn1cc(NC(=O)C2=C(O)CN(c3ccc(C#N)cc3)NC2=O)cn1 [1-281] | A (the mortality rate is 100%) | –
9 | Cc1cc(NC(=O)C2=C(O)CN(c3ccc(Br)nc3)NC2=O)cnc1C [1-394] | A (the mortality rate is 100%) | A (the mortality rate is 100%)
10 | COC(=O)N1C(=O)C(C(=O)Nc2ccc(F)nn2)=C(O)CN1c1ccc(Cl)nc1 [3-419] | A (the mortality rate is 100%) | –
11 | O=C(Nc1cccnc1)C1=C(O)CN(c2ccc(Cl)nc2)NC1=O [1-138] | A (the mortality rate is 100%) | –
12 | N#Cc1ccc(N2CC(O)=C(C(=O)Nc3ncccc3F)C(=O)N2)cc1 [1-250] | A (the mortality rate is 100%) | A (the mortality rate is 100%)
13 | CC(C)(C)OC(=O)N1C(=O)C(C(=S)NC2CC2)=C(O)CN1c1ccc(Cl)nc1 [4-45] | A (the mortality rate is 100%) | A (the mortality rate is 100%)
14 | N#Cc1ccc(N2CC(O)=C(C(=O)Nc3ccc(C#N)nc3)C(=O)N2)cc1 [1-244] | A (the mortality rate is 100%) | A (the mortality rate is 100%)
15 | COC(=O)N1C(=O)C(C(=S)Nc2cccc(F)c2)=C(O)CN1c1cnc(C#N)c(C)c1 [4-120] | A (the mortality rate is 100%) | A (the mortality rate is 100%)
16 | COC(=O)N1C(=O)C(C(=O)Nc2cnn(C)c2)=C(O)CN1c1ccc(Br)nc1 [3-392] | A (the mortality rate is 100%) | A (the mortality rate is 100%)
17 | COC(=O)N1C(=O)C(C(=O)Nc2ccc(C#N)cn2)=C(O)CN1c1ccc(Br)nc1 [3-512] | A (the mortality rate is 100%) | A (the mortality rate is 100%)
18 | COC(=O)N1C(=O)C(C(=S)Nc2ccccc2F)=C(O)CN1c1cnc(C#N)c(C)c1 [4-119] | A (the mortality rate is 100%) | A (the mortality rate is 100%)
19 | CC(C)NC(=S)C1=C(O)CN(c2ccc(C(F)(F)F)nc2)N(C(=O)OC(C)(C)C)C1=O [4-41] | A (the mortality rate is 100%) | A (the mortality rate is 100%)
20 | CCCNC(=O)N1C(=O)C(C(=O)Nc2ccc(F)cc2)=C(O)CN1c1cnc(C#N)c(C)c1 [3-58] | A (the mortality rate is 100%) | A (the mortality rate is 100%)

Row | Compound | insecticidal efficacy (corrected mortality rate) against small brown planthopper (500 ppm) | insecticidal efficacy (corrected mortality rate) against small brown planthopper (50 ppm)
21 | COCCNC(=O)C1=C(O)CN(c2ccc(Cl)nc2)N(C(=O)OCCOC)C1=O [3-325] | A (the mortality rate is 100%) | –
22 | COC(=O)N1C(=O)C(C(=O)NCc2cnccn2)=C(O)CN1c1ccc(Br)nc1 [3-399] | A (the mortality rate is 100%) | A (the mortality rate is 100%)
23 | CNC(=S)C1=C(O)CN(c2ccc(C(F)(F)F)nc2)N(C(=O)OC(C)(C)C)C1=O [4-42] | A (the mortality rate is 100%) | A (the mortality rate is 100%)
24 | CCCNC(=O)N1C(=O)C(C(=O)Nc2ccn(C)n2)=C(O)CN1c1ccc(Br)nc1 [3-524] | A (the mortality rate is 100%) | A (the mortality rate is 100%)
25 | COC(=O)N1C(=O)C(C(=O)Nc2ccc(C#N)nc2)=C(O)CN1c1ccc(C#N)cc1 [3-436] | A (the mortality rate is 100%) | A (the mortality rate is 100%)
26 | COC(=O)N1C(=O)C(C(=O)Nc2ncc(C)s2)=C(O)CN1c1ccc(Br)nc1 [3-405] | A (the mortality rate is 100%) | –
27 | COC(=O)N1C(=O)C(C(=O)Nc2ccn(C)n2)=C(O)CN1c1cnc(C#N)c(Cl)c1 [3-465] | A (the mortality rate is 100%) | A (the mortality rate is 100%)
28 | COC(=O)N1C(=O)C(C(=S)Nc2cccc(F)c2)=C(O)CN1c1ccc(Br)nc1 [4-81] | A (the mortality rate is 100%) | A (the mortality rate is 100%)
29 | COC(=O)N1C(=O)C(C(=O)Nc2ccnc(Cl)c2)=C(O)CN1c1ccc(Cl)nn1 [3-417] | A (the mortality rate is 100%) | A (the mortality rate is 100%)
30 | COC(=O)N1C(=O)C(C(=O)Nc2ccc(F)cc2)=C(O)CN1c1ccc(-c2nnn(C)n2)nc1 [3-106] | A (the mortality rate is 100%) | –
31 | COC(=O)N1C(=O)C(C(=O)Nc2ccc(F)nc2)=C(O)CN1c1ccc(C#N)c(OC)c1 [3-221] | A (the mortality rate is 100%) | A (the mortality rate is 100%)
32 | COC(=O)N1C(=O)C(C(=O)Nc2cnccn2)=C(O)CN1c1ccc(C#N)cc1 [3-448] | A (the mortality rate is 100%) | A (the mortality rate is 100%)
33 | COC(=O)N1C(=O)C(C(=O)Nc2ccc(F)cc2)=C(O)CN1c1ccn2ncnc2c1 [3-100] | A (the mortality rate is 100%) | A (the mortality rate is 100%)
34 | COC(=O)N1C(=O)C(C(=O)Nc2ccc(C)c(F)c2)=C(O)CN1c1ccc(Cl)nc1 [3-153] | A (the mortality rate is 100%) | A (the mortality rate is 100%)
35 | CCOC(=O)N1C(=O)C(C(=O)Nc2ccn(C)n2)=C(O)CN1c1ccc(Br)nc1 [3-648] | A (the mortality rate is 100%) | A (the mortality rate is 100%)
36 | COC(=O)N1C(=O)C(C(=O)Nc2cncc(OC)n2)=C(O)CN1c1ccc(Br)nc1 [3-518] | A (the mortality rate is 100%) | A (the mortality rate is 100%)
37 | CCCNC(=O)N1C(=O)C(C(=O)Nc2ccc(F)cn2)=C(O)CN1c1ccc(C#N)cc1 [3-69] | A (the mortality rate is 100%) | A (the mortality rate is 100%)
38 | COC(=O)N1C(=O)C(C(=S)Nc2ccc(F)cc2F)=C(O)CN1c1ccc(C#N)nc1 [4-75] | A (the mortality rate is 100%) | A (the mortality rate is 100%)
39 | O=C(NCc1ncccn1)C1=C(O)CN(c2ccc(Cl)nc2)NC1=O [1-41] | A (the mortality rate is 100%) | –
40 | COCCOC(=O)N1C(=O)C(C(=O)Nc2ccn(C)n2)=C(O)CN1c1ccc(Cl)nc1 [3-654] | A (the mortality rate is 100%) | A (the mortality rate is 100%)

— patent publication US20250074896A1, “ARYLTETRAHYDROPYRIDAZINE DERIVATIVE OR SALT THEREOF AND INSECTICIDAL AGENT CONTAINING THE COMPOUND AND METHOD FOR USING SAME” (NIHON NOHYAKU CO., LTD., priority 2021, published 2025)
